Reference: US11560518B2, “Polymerizable liquid crystal compound, polymerizable composition, polymer, retardation film, method for producing retardation film, transfer laminate, optical member, method for producing optical member, and display device” (DAI NIPPON PRINTING CO., LTD., priority 2017, dated 2023)
Some compounds share one range, which may span the group rather than tell each member.

Assays:
[1] = Birefringence index Δn at 550 nm from in-plane retardation Re at 550 nm and film thickness d; details: compound 100% by mass
[2] = Retardation (wavelength dispersion property): in-plane retardation Re at 450, 550 and 650 nm by KOBRA-WR, layer formed on photo-alignment film; details: x=Re(450)/Re(550), y=Re(650)/Re(550), compound 100% by mass
[3] = Wavelength dispersion property of retardation layer formed on rubbing-treated polyimide alignment film-attached glass; details: dried at solid-liquid crystal phase transition temperature + 10° C., single compound
[4] = Alignment property of the retardation layer observed with a polarizing microscope; details: cured 1 μm retardation layer; compound 100% by mass of polymerizable liquid crystal compound; photo-alignment film

Structure (SMILES)	Birefringence [1]	Wavelength dispersion property [2]	Wavelength dispersion property [3]	Alignment property [4]
C=CC(=O)OCCCCCCOc1ccc(C(=O)Oc2ccc(-c3ccc(OC(=O)c4ccc(OCCCCCCOC(=O)C=C)cc4)c(/C=N/Nc4nc5ccccc5s4)c3)cc2)cc1 [compound 2, reference compound]	C (Less than 0.075)	C (0.95≤x<1 and 1<y)	C (0.95≤x<1 and 1<y)	B (The same level of alignment as A was not found by visual observation, and the aligned area was found to be 50% or more and less than 90% by the polarizing microscopy.)
C=CC(=O)OCCCCCCOc1ccc(OC(=O)C2CCC(C(=O)Oc3ccc(-c4ccc(OC(=O)C5CCC(C(=O)Oc6ccc(OCCCCCCOC(=O)C=C)cc6)CC5)c(/C=N/N(CCOCCOC)c5nc6ccccc6s5)c4)cc3/C=N/N(CCOCCOC)c3nc4ccccc4s3)CC2)cc1 (stereo not drawn) [Compound 4]	A (0.08 or more)	A (0.6≤x<0.90 and 1<y (reverse wavelength dispersion property))		A (Uniform alignment was found by visual observation, and the aligned area was found to be 90% or more by the polarizing microscopy.)
C=CC(=O)OCCCCCCOc1ccc(OC(=O)C2CCC(C(=O)Oc3ccc(OC(=O)C4CCC(C(=O)Oc5ccc(OCCCCCCOC(=O)C=C)cc5)CC4)c(/C=N/N(CCCCCC)c4nc5ccccc5s4)c3)CC2)cc1 (stereo not drawn) [compound 1, reference compound]	C (Less than 0.075)	A (0.6≤x<0.90 and 1<y (reverse wavelength dispersion property))	A (0.6≤x<0.90 and 1<y (reverse wavelength dispersion property))	A (Uniform alignment was found by visual observation, and the aligned area was found to be 90% or more by the polarizing microscopy.)
C=CC(=O)OCCCCCCOc1ccc(OC(=O)C2CCC(C(=O)Oc3ccc(-c4ccc(OC(=O)C5CCC(C(=O)Oc6ccc(OCCCCCCOC(=O)C=C)cc6)CC5)c(/C=N/N(CCCCCC)c5nc6ccc(OC)cc6s5)c4)cc3/C=N/N(CCCCCC)c3nc4ccc(OC)cc4s3)CC2)cc1 (stereo not drawn) [Compound 5]	A (0.08 or more)	A (0.6≤x<0.90 and 1<y (reverse wavelength dispersion property))		A (Uniform alignment was found by visual observation, and the aligned area was found to be 90% or more by the polarizing microscopy.)
C=CC(=O)OCCCCCCOc1ccc(OC(=O)C2CCC(C(=O)Oc3ccc(-c4ccc(OC(=O)C5CCC(C(=O)Oc6ccc(OCCCCCCOC(=O)C=C)cc6)CC5)c(/C=N/N(CCOCCCC)c5nc6ccccc6o5)c4)cc3/C=N/N(CCOCCCC)c3nc4ccccc4o3)CC2)cc1 (stereo not drawn) [Compound 11]	A (0.08 or more)	A (0.6≤x<0.90 and 1<y (reverse wavelength dispersion property))		A (Uniform alignment was found by visual observation, and the aligned area was found to be 90% or more by the polarizing microscopy.)
C=CC(=O)OCCCCCCOc1ccc(C(=O)OC2CCC(C(=O)Oc3ccc(-c4ccc(OC(=O)C5CCC(OC(=O)c6ccc(OCCCCCCOC(=O)C=C)cc6)CC5)c(/C=N/N(CCCCCC)c5nc6ccccc6s5)c4)cc3/C=N/N(CCCCCC)c3nc4ccccc4s3)CC2)cc1 (stereo not drawn) [Compound 8]	A (0.08 or more)	A (0.6≤x<0.90 and 1<y (reverse wavelength dispersion property))		A (Uniform alignment was found by visual observation, and the aligned area was found to be 90% or more by the polarizing microscopy.)
C=CC(=O)OCCCCCCOc1ccc(OC(=O)C2CCC(C(=O)Oc3ccc(-c4ccc(OC(=O)C5CCC(C(=O)Oc6ccc(OCCCCCCOC(=O)C=C)cc6)CC5)c(/C=N/N(CCCCCC)c5nc6ccc(F)cc6s5)c4)cc3/C=N/N(CCCCCC)c3nc4ccc(F)cc4s3)CC2)cc1 (stereo not drawn) [Compound 2]	A (0.08 or more)	A (0.6≤x<0.90 and 1<y (reverse wavelength dispersion property))		A (Uniform alignment was found by visual observation, and the aligned area was found to be 90% or more by the polarizing microscopy.)
C=CC(=O)OCCCCCCOc1ccc(OC(=O)C2CCC(C(=O)Oc3ccc(-c4ccc(OC(=O)C5CCC(C(=O)Oc6ccc(OCCCCCCOC(=O)C=C)cc6)CC5)c(/C=N/N(CCCCCC)c5nc6ccc(OCC)cc6s5)c4)cc3/C=N/N(CCCCCC)c3nc4ccc(OCC)cc4s3)CC2)cc1 (stereo not drawn) [Compound 3]	A (0.08 or more)	A (0.6≤x<0.90 and 1<y (reverse wavelength dispersion property))		A (Uniform alignment was found by visual observation, and the aligned area was found to be 90% or more by the polarizing microscopy.)
C=CC(=O)OCCCCCCOc1ccc(OC(=O)C2CCC(C(=O)Oc3ccc(-c4ccc(OC(=O)C5CCC(C(=O)Oc6ccc(OCCCCCCOC(=O)C=C)cc6)CC5)c(/C=N/N(CC5CCCO5)c5nc6ccccc6s5)c4)cc3/C=N/N(CC3CCCO3)c3nc4ccccc4s3)CC2)cc1 (stereo not drawn) [Compound 13]	A (0.08 or more)	A (0.6≤x<0.90 and 1<y (reverse wavelength dispersion property))		A (Uniform alignment was found by visual observation, and the aligned area was found to be 90% or more by the polarizing microscopy.)
C=CC(=O)OCCCCCCOc1ccc(C(=O)O[C@H]2CC[C@H](OC(=O)c3ccc(OCCCCCCOC(=O)C=C)cc3)CC2)cc1 [Compound B-6]			C (0.95≤x<1 and 1<y)	
C=CC(=O)OCCCCCCOc1ccc(OC(=O)C2CCC(C(=O)Oc3ccc(-c4ccc(OC(=O)C5CCC(C(=O)Oc6ccc(OCCCCCCOC(=O)C=C)cc6)CC5)c(/C=N/N(CCOCCCC)c5nc6ccccc6s5)c4)cc3/C=N/N(CCOCCCC)c3nc4ccccc4s3)CC2)cc1 (stereo not drawn) [Compound 10]	A (0.08 or more)	A (0.6≤x<0.90 and 1<y (reverse wavelength dispersion property))		A (Uniform alignment was found by visual observation, and the aligned area was found to be 90% or more by the polarizing microscopy.)
C=CC(=O)OCCCCCCOc1ccc(OC(=O)C2CCC(C(=O)Oc3ccc(-c4ccc(OC(=O)C5CCC(C(=O)Oc6ccc(OCCCCCCOC(=O)C=C)cc6)CC5)c(/C=N/N(CCCCCC)c5nc6ccccc6s5)c4)cc3/C=N/N(CCCCCC)c3nc4ccccc4s3)CC2)cc1 (stereo not drawn) [Compound 1]	A (0.08 or more)	A (0.6≤x<0.90 and 1<y (reverse wavelength dispersion property))		A (Uniform alignment was found by visual observation, and the aligned area was found to be 90% or more by the polarizing microscopy.)
